The chains behind the UniProt entries cited, without tags or fusion partners. Where a name states a change or a piece, a line headed by the entry shows the natural chain unless it says otherwise.
UniProt P51450: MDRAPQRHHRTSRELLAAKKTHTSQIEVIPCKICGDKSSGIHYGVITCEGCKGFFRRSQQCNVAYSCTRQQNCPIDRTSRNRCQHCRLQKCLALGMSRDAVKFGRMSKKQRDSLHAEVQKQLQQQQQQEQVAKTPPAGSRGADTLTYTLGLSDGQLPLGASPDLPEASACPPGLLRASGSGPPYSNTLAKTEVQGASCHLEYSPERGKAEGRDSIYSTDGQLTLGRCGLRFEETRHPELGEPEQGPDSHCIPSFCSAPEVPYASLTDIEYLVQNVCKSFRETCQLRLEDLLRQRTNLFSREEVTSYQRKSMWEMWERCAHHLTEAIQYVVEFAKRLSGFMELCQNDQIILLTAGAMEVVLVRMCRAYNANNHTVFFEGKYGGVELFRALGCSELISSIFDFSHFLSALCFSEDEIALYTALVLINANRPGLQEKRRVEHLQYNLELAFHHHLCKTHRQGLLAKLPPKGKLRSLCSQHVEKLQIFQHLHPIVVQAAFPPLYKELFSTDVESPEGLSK

Out of some 310,000 compounds screened, about 17,000 (5.5%) were called active. This list was built around the results that the source calls inconclusive (neither active nor inactive); the mix of calls is not that of the screen. Calls follow the shape of the dose curve; as a rule, active = well fitted inhibition curve with a large enough effect; inconclusive = small, poorly fitted or top-dose-only effect, or effect the other way; inactive = no such curve, though single readings can be large or run the other way. Where the call is inconclusive, the potency comes from a doubtful curve fit.
Each compound was assayed against Nuclear receptor ROR-gamma (Mus musculus) (UniProt P51450) (assay: qHTS for inhibitors of ROR gamma transcriptional activity). Settings: Drosophila S2 Gal4-RORgamma UAS-luciferase reporter, 20 h; activity change, negative = inhibition: at 53.6 µM (top of the series).
Method in brief: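 Drosophila Schneider cells stably carrying a metallothionein-driven Gal4 DBD–ROR gamma fusion and a UAS-Photinus luciferase reporter were exposed to compound for 1 hr, then induced with copper sulfate (700 uM final) for 20 hr at ambient temperature before luminescence reading.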
`COCCN(CCOC)S(=O)(=O)c1ccc(C(=O)Nc2sc3c(c2C(N)=O)CCCCC3)cc1` was tested, and the Potency was inconclusive: 1.78 µM [activator, full curve, poor fit].
With `COc1cc([C@H]2[C@@H]3CCCC[C@]3(O)CCN2CC(=O)Nc2ccc(C)cc2)ccc1O` the Potency was inconclusive: 0.1 µM [activator, single point].
With `O=C(c1ccncc1)N1c2ccccc2Sc2ccccc21` the “activity change, negative = inhibition” value was inactive: 19.7%.
For `COC(=O)C1CCN(c2ccc(C(N)=O)cc2[N+](=O)[O-])CC1`, the Potency was inconclusive: 35.5 µM [activator, single point].
In the case of `COc1cc2c(cc1OC)CN(C(=S)Nc1ccccc1)CC2`, the Potency is reported as active: 11.2 µM.
For `CCCOc1ccc(C(=O)Nc2ccc(N3CCN(C(=O)c4ccco4)CC3)cc2)cc1`, the Potency was inconclusive: 35.5 µM [inhibitor, single point].
For `Cc1cc(C)cc(Oc2nc(-c3ccccc3)cc(C)c2S(C)(=O)=O)c1`, the “activity change, negative = inhibition” value was inactive: 9.13%.
With `CCCNC(=O)[C@H](Cc1c[nH]c2ccccc12)NC(=O)c1ccccc1Cl` the “activity change, negative = inhibition” value was inactive: 14.4%.
`COc1ccc(C(C#N)=C2C=CC(=NO)C=C2)cc1` was tested, and the Potency was inconclusive: 12.6 µM [inhibitor, single point].
For `COc1ccc(C(=O)/C=C/C(=O)N(CC(=O)NC2CCCCC2)Cc2ccccc2OC)c(O)c1`, the Potency was inconclusive: 6.31 µM [inhibitor, single point].
In the case of `O=C(c1ccccc1)N1CCN(Cc2cccc(Oc3ccccc3)c2)CC1`, the Potency is reported as inconclusive: 22.4 µM [activator, single point].
For `O=[N+]([O-])c1cccc2c(Cl)ccnc12`, the “activity change, negative = inhibition” value was inactive: -8.39%.
With `O=C(c1cc(C(=O)NCCc2ccccc2)c(=O)n(CCc2ccccc2)c1)c1cc(Cl)ccc1O` the Potency was inconclusive: 14.1 µM [activator, partial curve, poor fit].
`COc1ccc(C(=O)n2nc(-c3ccco3)nc2N)cc1` was tested, and the Potency was inconclusive: 35.5 µM [inhibitor, single point].
For `C=CCn1cc(C(=O)NCc2ccc(Cl)cc2)c(=O)c2cc(S(=O)(=O)N(CC)CC)ccc21`, the Potency was inconclusive: 14.1 µM [activator, partial curve].
With `O=C(/C=C/c1ccc(Cl)cc1)NC(=S)NN1CCCCC1c1cccnc1` (stereo unspecified) the Potency was active: 2 µM.
In the case of `COC(=O)N/N=C/c1ccccc1OCCOc1ccc(OC)cc1`, the “activity change, negative = inhibition” value is reported as inactive: 24.1%.
In the case of `COc1ccc(CNC(=O)CCCNC(=O)c2ccc(Cl)cc2)cc1OC`, the “activity change, negative = inhibition” value is reported as inactive: -4.01%.
`O=[N+]([O-])c1ccc(N/N=C/c2c[nH]c3ccccc23)cc1` was tested, and the Potency was inconclusive: 12.6 µM [activator, partial curve].
For `COCCn1c(SCC(=O)Nc2sccc2C(N)=O)nc2cc(Cl)ccc2c1=O`, the “activity change, negative = inhibition” value was inactive: -20.5%.
With `COc1ccc(N2CCN(C(=O)c3ccc(F)cc3)CC2)c([N+](=O)[O-])c1` the Potency was inconclusive: 35.5 µM [inhibitor, single point].
With `CCC(C)NC(=O)Cn1cc2c(n1)CCC(C)C2` (stereo unspecified) the Potency was inconclusive: 12.6 µM [activator, single point].
For `COc1ccc(C(=O)Nn2c(SCC(=O)NC3CCCC3)nc3ccccc3c2=O)cc1`, the Potency was inconclusive: 12.6 µM [inhibitor, single point].
In the case of `S=c1[nH]nc(C2CCCCC2)n1/N=C/c1ccc(Br)s1`, the Potency is reported as active: 1.12 µM.
In the case of `Cc1cc(Nc2ccc(F)cc2Cl)n2ncnc2n1`, the Potency is reported as inconclusive: 11.2 µM [inhibitor, partial curve, poor fit].
With `O=S(=O)(c1ccc(Oc2ccc(Cl)cc2)c(S(=O)(=O)N2CCCCC2)c1)N1CCCCC1` the “activity change, negative = inhibition” value was inactive: -21.9%.
`COc1cc(C(C[N+](=O)[O-])c2c(N)n(C)c(=O)n(C)c2=O)ccc1O` (stereo unspecified) was tested, and the Potency was active: 14.1 µM.
With `CC(Nc1nc(-c2ccc3c(c2)NC(=O)CO3)cs1)c1ccccc1` (stereo unspecified) the Potency was inconclusive: 11.2 µM [activator, partial curve, poor fit].
With `CC(C)COc1cccc(-c2cc(C(=O)Nc3ccon3)c3ccccc3n2)c1` the Potency was inconclusive: 35.5 µM [inhibitor, single point].
With `COc1cc(C(=O)CSc2nncn2C)cc(OC)c1OC` the “activity change, negative = inhibition” value was inactive: 19%.
With `CCNC(=S)Nc1ccc(Cl)c(C(F)(F)F)c1` the Potency was inconclusive: 15.8 µM [inhibitor, single point].
With `N#C/C(=C\c1ccc2c(c1)OCCO2)C(=O)NC1CCCCC1` the Potency was inconclusive: 5.01 µM [activator, single point].
In the case of `COC(=O)c1sc(SC)c(S(=O)(=O)C(C)C)c1N/N=C(\C#N)C(=O)c1ccccc1`, the Potency is reported as inconclusive: 35.5 µM [activator, single point].
In the case of `COC(=O)c1sc(NC(=O)COc2ccccc2C)nc1C`, the Potency is reported as inconclusive: 35.5 µM [inhibitor, single point].
With `CC(CCc1ccccc1)NC(=O)COC(=O)c1cc(NS(=O)(=O)c2ccc(Cl)c([N+](=O)[O-])c2)ccc1O` (stereo unspecified) the Potency was inconclusive: 35.5 µM [inhibitor, single point].
For `S=C(Nc1ccc(Oc2ccc(NC(=S)NC3CCCCC3)cc2)cc1)NC1CCCCC1`, the Potency was active: 1 µM.
For `CSc1ccc(S(=O)(=O)NCc2ccc(C)cc2)cc1`, the “activity change, negative = inhibition” value was inactive: 4.7%.
For `Cc1ccccc1NCC(=O)N/N=C\C=C\c1cccc([N+](=O)[O-])c1`, the Potency was inconclusive: 22.4 µM [inhibitor, single point].
For `CCc1n[nH]c(=S)n1/N=C/c1c(O)ccc2ccccc12`, the Potency was inconclusive: 31.6 µM [inhibitor, single point].
For `CCCn1c(=O)c(C(=O)NCc2ccccc2Cl)c(O)c2ccccc21`, the Potency was inconclusive: 35.5 µM [inhibitor, single point].
With `CCc1ccc(OC(C)c2nnc(SCC(=O)Nc3ncccc3C)n2C)cc1` (stereo unspecified) the “activity change, negative = inhibition” value was inactive: -13.2%.
`COc1ccc2c(c1)C(c1ccc3c(c1)OCO3)CC(=O)O2` (stereo unspecified) was tested, and the “activity change, negative = inhibition” value was inactive: 3.59%.
`CCNC(=S)N(Cc1ccco1)Cc1cc2cc3c(cc2[nH]c1=O)OCCO3` was tested, and the Potency was inconclusive: 10 µM [activator, partial curve].
`O=c1/c(=C\c2ccc3c(c2)OCO3)sc2n1CCCN=2` was tested, and the Potency was inconclusive: 12.6 µM [inhibitor, single point].
With `Cn1cc(Br)c(C(=O)N2CCN(c3cccc(Cl)c3)CC2)n1` the Potency was inconclusive: 20 µM [activator, single point].
With `O=C(NC1CCCc2c1cnn2-c1ccc(F)cc1F)c1ccccn1` (stereo unspecified) the Potency was inconclusive: 11.2 µM [activator, partial curve].
For `CCOC(=O)C1CCN(CCC(=O)Nc2ccccc2Cl)CC1`, the Potency was inconclusive: 3.55 µM [inhibitor, full curve, poor fit].
With `CCCCc1ccc(NC(=O)N[C@H](C(=O)O)C(C)CC)cc1` (stereo partly specified) the “activity change, negative = inhibition” value was inactive: 26.2%.
With `CC1CN(c2ccc(C(F)(F)F)cc2[N+](=O)[O-])CCN1S(C)(=O)=O` (stereo unspecified) the Potency was inconclusive: 17.8 µM [activator, single point].
For `CCCCCC(=O)NC(=S)Nc1ccc(N2CCCCC2)c(Cl)c1`, the Potency was active: 1.58 µM.
`Cc1ccc(C2CC(=O)Nc3c2ccc2ccccc32)cc1[N+](=O)[O-]` (stereo unspecified) was tested, and the Potency was inconclusive: 35.5 µM [activator, single point].
In the case of `CCOC(=O)c1csc(NC(=O)COc2ccc(Cl)cc2Cl)n1`, the Potency is reported as inconclusive: 35.5 µM [inhibitor, single point].
For `COc1ccc2sc(NC(=O)c3ccco3)nc2c1`, the Potency was active: 10 µM.
In the case of `Cc1nc(C)c(C(=O)N(c2ccccc2F)C(C(=O)NCC2CCCO2)c2ccccc2)s1` (stereo unspecified), the “activity change, negative = inhibition” value is reported as inactive: -6.07%.
For `Cc1[nH]c2ccccc2c1Cc1nnc(SCCC#N)o1`, the Potency was inconclusive: 8.91 µM [activator, partial curve].
With `O=C(Nc1ccccc1Cl)C1CC(=O)n2c(nc3ccccc32)N1` (stereo unspecified) the “activity change, negative = inhibition” value was inactive: 10.6%.
For `Cc1nc2ccc(NS(=O)(=O)c3ccc(F)c(C)c3)cc2[nH]1`, the Potency was inconclusive: 2.51 µM [activator, single point].
For `CCC/C=N/NC(=O)c1[nH]c2c([N+](=O)[O-])cccc2c1C`, the Potency was inconclusive: 22.4 µM [inhibitor, single point].
With `CCN(CC)c1ccc2cc(-c3nnc(-c4ccncc4)o3)c(=O)oc2c1` the “activity change, negative = inhibition” value was inactive: 7.42%.
With `NC(=S)N/N=C/c1ccccc1OCc1cccc(Cl)c1` the Potency was active: 0.794 µM.
In the case of `CC(C)(C)OC(=O)NNC(=S)NCc1ccc(Cl)cc1`, the Potency is reported as active: 14.1 µM.
With `O=c1oc2ccccc2n1CCn1c2ccccc2c2nc3ccccc3nc21` the Potency was inconclusive: 8.91 µM [inhibitor, single point].
`COc1ccc(C(c2nnnn2Cc2ccccc2)N2CCN(c3nc4ccccc4s3)CC2)cc1OC` (stereo unspecified) was tested, and the Potency was inconclusive: 15.8 µM [activator, single point].
For `Cc1nnc(N2C(=O)C(O)=C(C(=O)c3ccco3)C2c2ccc(F)cc2)s1` (stereo unspecified), the Potency was inconclusive: 8.91 µM [inhibitor, partial curve].
With `C=CCn1c(SCC(N)=O)nc2sc3c(c2c1=O)CCC3` the “activity change, negative = inhibition” value was inactive: -36.9%.
For `Cc1sc(NC(=O)C2C3CCC(C3)C2C(=O)O)c(C(N)=O)c1-c1ccc(C(C)(C)C)cc1` (stereo unspecified), the Potency was inconclusive: 3.98 µM [activator, single point].
`CCn1nccc1C(=O)Nc1ccc(Cl)c(Cl)c1` was tested, and the Potency was inconclusive: 1.26 µM [activator, full curve].
`CCS(=O)(=O)c1ccc(C(=O)Nc2cccc(Cl)c2)c(Cl)c1Cl` was tested, and the Potency was inconclusive: 12.6 µM [activator, single point].
With `Cc1cccc(N2CCN(C(=O)Cc3cn(C)c4ccccc34)CC2)c1C` the Potency was inconclusive: 35.5 µM [inhibitor, single point].
`CCOC(=O)c1c(NC(=O)c2nn(CC)cc2Br)sc2c1CCCCC2` was tested, and the “activity change, negative = inhibition” value was inactive: -17.4%.
In the case of `CCN(CC)c1ccc(NC(=O)Nc2cccc(C(C)=O)c2)cc1`, the Potency is reported as active: 7.94 µM.

— PubChem BioAssay AID2551 (National Center for Advancing Translational Sciences (NCATS), 2010)
% is scaled to controls: 0 for no effect and ±100 for the full control effect; potency is read from the fitted curve at half-maximal effect.
Also: nearly all actives have a fitted effect of over 60% in size.
